The record followed here is publication PMC12406199, “NanoDSF Screening for Anti-tubulin Agents Uncovers New Structure–Activity Insights” (Journal of Medicinal Chemistry, 2025).

The assay relates to U87MG. Put plainly: cells. On the set-up: MTT viability assay on U87MG glioblastoma cells. As to conditions: Homo sapiens, U-87 MG, 72 h. How it is done: Glioblastoma cell culture routines, viability, and proliferation assays were performed as previously described. U87MG cells were maintained in complete MEM media supplemented with 10% FBS and 2 mM L-glutamine (Invitrogen, Paris, France). For cytotoxicity assays, cells were counted and plated in 96-well flat-bottom plates (50,000 cells/mL, 5000 cells per well). After 24 h, the cells were treated with increasing concentrations of the MTAs (0, 1, 5, 10, and 20–40 μM) in a vehicle solution, containing 0.05% DMSO. All concentrations were done in triplicates. The surviving cells were quantified after 72 h by the tetrazolium bromide MTT-assay, according to the manufacturer’s instructions. After cell lysis, the optical density was measured at 600 nm using a Multiskan MS Thermo plate reader (LabSystems, Waltham, MA, USA).

Broadly, the IC50 is the point on the concentration scale where inhibition reaches its midpoint. Higher therefore signals lower potency. Consider `COC(=O)C1=C(C)NC(C)=C(C(=O)OC)C1c1ccccc1[N+](=O)[O-]` [NFD, Nifedipine], for which 40.4 ± 6.6 µM corresponded to half-maximal inhibition (IC50).
